PubChem BioAssay AID1224826 – NIAID – 2016
Aim: 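Regulators of Tlr4 signalling leading to Tnf-alpha expression in macrophages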 (primary screen). Cells: RAW264.7 G9 macrophages from mouse bearing reporters for p65 (GFP) and the Tnf promoter (mCherry). Reagents: siRNA pool against mouse genes, 100 nM. Time to read-out: 16 h of LPS stimulation, after 2 days of siRNA transfection. Conditions: bacterial lipopolysaccharide (Salmonella minnesota R595), 10 ng/ml. Read-out: 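Imaged Tnf reporter mCherry in nuclei, minus background, normalised per plate to the median and expressed as robust z-scores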. Direction: Tnf reporter robust z-score: higher = stronger Tnf promoter reporter signal after LPS; Tnf reporter intensity: higher = stronger Tnf promoter reporter signal. Call rule: 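Called active when robust z-score is at most -1.3, matching the median of the Tlr4 knock-down control, or over 3; control wells and wells with under 50 cells never active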. Calls: active = Tnf reporter clearly lowered or raised; inactive = no clear change in Tnf reporter.
In all, the deposit lists about 17,000 reagents; shown is an unselected part. Of all reagents, about 1,110 (6.6%) are marked active. 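Active means lowered or raised reporter signal; replicate intensities are raw and not normalised per plate.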 The numbers tell different reagents against one gene apart.

target,reagent,Tnf reporter robust z-score,fewer than 50 cells in well,"Tnf reporter intensity, replicate 1","Tnf reporter intensity, replicate 2",activity call
"Ss18l1 (SS18, nBAF chromatin remodeling complex subunit like 1)",1,1.06,enough cells in well,140,131,inactive
Klf6 (Kruppel-like transcription factor 6),1,-0.24,enough cells in well,217,185,inactive
Dnmt3a (DNA methyltransferase 3A),1,0.89,enough cells in well,285,284,inactive
Ppip5k2 (diphosphoinositol pentakisphosphate kinase 2),1,-0.41,enough cells in well,132,130,inactive
Rims2 (regulating synaptic membrane exocytosis 2),1,0.01,enough cells in well,154,103,inactive
Aloxe3 (arachidonate lipoxygenase 3),1,-0.4,enough cells in well,152,139,inactive
Or2y10 (olfactory receptor family 2 subfamily Y member 10),1,-0.55,enough cells in well,153,93.9,inactive
Irx4 (Iroquois homeobox 4),1,-0.1,enough cells in well,249,132,inactive
Ccl27a (C-C motif chemokine ligand 27A),1,-0.05,enough cells in well,216,230,inactive
Fnbp1l (formin binding protein 1-like),1,0.95,enough cells in well,286,106,inactive
Hspa5 (heat shock protein family A (Hsp70) member 5),1,0.36,enough cells in well,278,201,inactive
Rock1 (Rho-associated coiled-coil containing protein kinase 1),1,0.84,enough cells in well,251,207,inactive
Ppil4 (peptidylprolyl isomerase (cyclophilin)-like 4),1,-0.73,enough cells in well,103,83.4,inactive
Rapgef2 (Rap guanine nucleotide exchange factor (GEF) 2),1,-0.98,enough cells in well,209,135,inactive
Hsd17b13 (hydroxysteroid (17-beta) dehydrogenase 13),1,-0.26,enough cells in well,169,190,inactive
Or1e26 (olfactory receptor family 1 subfamily E member 26),1,0.81,enough cells in well,218,162,inactive
"Gpam (glycerol-3-phosphate acyltransferase, mitochondrial)",1,1.03,enough cells in well,316,231,inactive
Rasa1 (RAS p21 protein activator 1),1,-0.03,enough cells in well,293,212,inactive
Hgf (hepatocyte growth factor),1,0.42,enough cells in well,270,217,inactive
"Lysmd4 (LysM, putative peptidoglycan-binding, domain containing 4)",1,,fewer than 50 cells per well; well left out of calls,217,46.8,inactive
Krt27 (keratin 27),1,-0.32,enough cells in well,184,108,inactive
4931429L15Rik (RIKEN cDNA 4931429L15 gene),1,,fewer than 50 cells per well; well left out of calls,124,56.5,inactive
1700029H14Rik (RIKEN cDNA 1700029H14 gene),1,2.28,enough cells in well,360,156,inactive
Art2a (ADP-ribosyltransferase 2a),1,0.57,enough cells in well,213,188,inactive
Or8h9 (olfactory receptor family 8 subfamily H member 9),1,0.04,enough cells in well,224,125,inactive
"Acta2 (actin alpha 2, smooth muscle, aorta)",1,0.38,enough cells in well,240,102,inactive
"Acta2 (actin alpha 2, smooth muscle, aorta)",2,-0.72,enough cells in well,99.8,130,inactive
Ndufaf5 (NADH:ubiquinone oxidoreductase complex assembly factor 5),1,-0.26,enough cells in well,153,56.2,inactive
"Eif3j1 (eukaryotic translation initiation factor 3, subunit J1)",1,-0.94,enough cells in well,133,183,inactive
Gpc6 (glypican 6),1,-0.36,enough cells in well,193,160,inactive
Gabra1 (gamma-aminobutyric acid type A receptor subunit alpha 1),1,1.14,enough cells in well,307,371,inactive
"Il27ra (interleukin 27 receptor, alpha)",1,1.8,enough cells in well,401,230,inactive
Or11g26 (olfactory receptor family 11 subfamily G member 26),1,1.87,enough cells in well,123,194,inactive
Obi1 (ORC ubiquitin ligase 1),1,-0.53,enough cells in well,144,57.5,inactive

Records listed so far whose gene name starts with A or a:
target,reagent,Tnf reporter robust z-score,fewer than 50 cells in well,"Tnf reporter intensity, replicate 1","Tnf reporter intensity, replicate 2",activity call
Aloxe3 (arachidonate lipoxygenase 3),1,-0.4,enough cells in well,152,139,inactive
Art2a (ADP-ribosyltransferase 2a),1,0.57,enough cells in well,213,188,inactive
"Acta2 (actin alpha 2, smooth muscle, aorta)",1,0.38,enough cells in well,240,102,inactive
"Acta2 (actin alpha 2, smooth muscle, aorta)",2,-0.72,enough cells in well,99.8,130,inactive

The results go on:
target,reagent,Tnf reporter robust z-score,fewer than 50 cells in well,"Tnf reporter intensity, replicate 1","Tnf reporter intensity, replicate 2",activity call
Nusap1 (nucleolar and spindle associated protein 1),1,0.11,enough cells in well,289,158,inactive
Flii (flightless I actin binding protein),1,-0.92,enough cells in well,215,64.6,inactive
Dct (dopachrome tautomerase),1,-0.05,enough cells in well,233,219,inactive
Rps6kl1 (ribosomal protein S6 kinase-like 1),1,0.91,enough cells in well,236,230,inactive
Epcip (exosomal polycystin 1 interacting protein),1,,fewer than 50 cells per well; well left out of calls,61.7,106,inactive
Mrps26 (mitochondrial ribosomal protein S26),1,-0.32,enough cells in well,156,194,inactive
Pnpt1 (polyribonucleotide nucleotidyltransferase 1),1,-0.34,enough cells in well,124,105,inactive
Bub3 (BUB3 mitotic checkpoint protein),1,1.58,enough cells in well,225,245,inactive
Phf2 (PHD finger protein 2),1,-0.58,enough cells in well,217,138,inactive
Vmn1r26 (vomeronasal 1 receptor 26),1,-0.5,enough cells in well,73.7,94.6,inactive
Klk1b16 (kallikrein 1-related peptidase b16),1,1.2,enough cells in well,254,195,inactive
4833414E09Rik (RIKEN cDNA 4833414E09 gene),1,,fewer than 50 cells per well; well left out of calls,165,64.5,inactive
"Prim1 (DNA primase, p49 subunit)",1,0.96,enough cells in well,334,248,inactive
Efhd2 (EF hand domain containing 2),1,,fewer than 50 cells per well; well left out of calls,96.4,78.9,inactive
Cstb (cystatin B),1,-0.1,enough cells in well,194,229,inactive
Rdh1 (retinol dehydrogenase 1 (all trans)),1,-1.09,enough cells in well,97.2,64.3,inactive
Dcaf12l1 (DDB1 and CUL4 associated factor 12-like 1),1,0.36,enough cells in well,143,135,inactive
4930544M13Rik (RIKEN cDNA 4930544M13 gene),1,,fewer than 50 cells per well; well left out of calls,161,53.8,inactive
"Adat2 (adenosine deaminase, tRNA-specific 2)",1,-1.97,enough cells in well,61.2,46.1,active
Or5w12 (olfactory receptor family 5 subfamily W member 12),1,0.24,enough cells in well,235,136,inactive
"Lin7c (lin-7 homolog C, crumbs cell polarity complex component)",1,-0.52,enough cells in well,177,103,inactive
"Pkd2 (polycystin 2, transient receptor potential cation channel)",1,0.59,enough cells in well,296,229,inactive
Prr14l (proline rich 14-like),1,,fewer than 50 cells per well; well left out of calls,196,119,inactive
Opa3 (optic atrophy 3),1,0.45,enough cells in well,280,248,inactive
